Measurements: doi:10.1101/2021.05.12.443731
These are yes or no findings as the source states them, for the method shown. In cells and extracts the contact can be indirect. Here binding means that the protein was enriched with, or labelled near, the bait; the list need not be complete.

Sequences of proteins named here, by UniProt entry; tags and fusion partners are left off.
UniProt Q12824: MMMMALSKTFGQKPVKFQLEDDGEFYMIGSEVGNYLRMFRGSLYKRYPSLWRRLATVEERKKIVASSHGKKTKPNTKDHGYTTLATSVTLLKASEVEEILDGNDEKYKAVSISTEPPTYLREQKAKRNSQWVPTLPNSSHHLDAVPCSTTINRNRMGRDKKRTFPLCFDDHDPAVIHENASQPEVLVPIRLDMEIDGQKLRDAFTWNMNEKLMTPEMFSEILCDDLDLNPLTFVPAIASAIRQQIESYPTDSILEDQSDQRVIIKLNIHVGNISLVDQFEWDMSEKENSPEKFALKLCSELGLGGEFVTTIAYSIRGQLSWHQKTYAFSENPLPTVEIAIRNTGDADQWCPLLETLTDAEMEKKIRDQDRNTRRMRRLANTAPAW
UniProt Q92925: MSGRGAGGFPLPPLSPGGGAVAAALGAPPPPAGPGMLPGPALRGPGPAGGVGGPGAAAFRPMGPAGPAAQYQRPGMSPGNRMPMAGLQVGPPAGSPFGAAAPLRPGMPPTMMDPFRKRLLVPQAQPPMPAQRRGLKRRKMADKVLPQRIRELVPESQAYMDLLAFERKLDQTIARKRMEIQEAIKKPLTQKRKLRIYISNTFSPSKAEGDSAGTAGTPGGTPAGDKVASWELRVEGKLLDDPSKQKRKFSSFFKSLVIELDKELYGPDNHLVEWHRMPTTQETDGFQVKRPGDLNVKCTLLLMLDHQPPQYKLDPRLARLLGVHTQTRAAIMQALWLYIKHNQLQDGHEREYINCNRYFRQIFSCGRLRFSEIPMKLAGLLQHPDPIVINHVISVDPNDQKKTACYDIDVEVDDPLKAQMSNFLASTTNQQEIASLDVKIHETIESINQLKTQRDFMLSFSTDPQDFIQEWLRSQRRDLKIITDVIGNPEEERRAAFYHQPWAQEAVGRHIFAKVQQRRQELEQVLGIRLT
UniProt Q969G3: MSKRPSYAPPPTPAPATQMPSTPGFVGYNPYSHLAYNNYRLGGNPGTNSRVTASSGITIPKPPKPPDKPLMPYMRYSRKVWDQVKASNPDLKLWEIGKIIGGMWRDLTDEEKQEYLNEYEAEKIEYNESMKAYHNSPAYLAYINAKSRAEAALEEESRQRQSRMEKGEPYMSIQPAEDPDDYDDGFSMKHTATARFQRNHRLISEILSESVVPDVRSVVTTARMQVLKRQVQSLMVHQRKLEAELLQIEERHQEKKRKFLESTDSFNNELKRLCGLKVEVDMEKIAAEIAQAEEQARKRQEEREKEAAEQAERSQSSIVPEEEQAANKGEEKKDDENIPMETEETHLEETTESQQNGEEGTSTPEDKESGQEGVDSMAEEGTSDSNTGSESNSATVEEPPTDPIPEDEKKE
UniProt Q9HAU5: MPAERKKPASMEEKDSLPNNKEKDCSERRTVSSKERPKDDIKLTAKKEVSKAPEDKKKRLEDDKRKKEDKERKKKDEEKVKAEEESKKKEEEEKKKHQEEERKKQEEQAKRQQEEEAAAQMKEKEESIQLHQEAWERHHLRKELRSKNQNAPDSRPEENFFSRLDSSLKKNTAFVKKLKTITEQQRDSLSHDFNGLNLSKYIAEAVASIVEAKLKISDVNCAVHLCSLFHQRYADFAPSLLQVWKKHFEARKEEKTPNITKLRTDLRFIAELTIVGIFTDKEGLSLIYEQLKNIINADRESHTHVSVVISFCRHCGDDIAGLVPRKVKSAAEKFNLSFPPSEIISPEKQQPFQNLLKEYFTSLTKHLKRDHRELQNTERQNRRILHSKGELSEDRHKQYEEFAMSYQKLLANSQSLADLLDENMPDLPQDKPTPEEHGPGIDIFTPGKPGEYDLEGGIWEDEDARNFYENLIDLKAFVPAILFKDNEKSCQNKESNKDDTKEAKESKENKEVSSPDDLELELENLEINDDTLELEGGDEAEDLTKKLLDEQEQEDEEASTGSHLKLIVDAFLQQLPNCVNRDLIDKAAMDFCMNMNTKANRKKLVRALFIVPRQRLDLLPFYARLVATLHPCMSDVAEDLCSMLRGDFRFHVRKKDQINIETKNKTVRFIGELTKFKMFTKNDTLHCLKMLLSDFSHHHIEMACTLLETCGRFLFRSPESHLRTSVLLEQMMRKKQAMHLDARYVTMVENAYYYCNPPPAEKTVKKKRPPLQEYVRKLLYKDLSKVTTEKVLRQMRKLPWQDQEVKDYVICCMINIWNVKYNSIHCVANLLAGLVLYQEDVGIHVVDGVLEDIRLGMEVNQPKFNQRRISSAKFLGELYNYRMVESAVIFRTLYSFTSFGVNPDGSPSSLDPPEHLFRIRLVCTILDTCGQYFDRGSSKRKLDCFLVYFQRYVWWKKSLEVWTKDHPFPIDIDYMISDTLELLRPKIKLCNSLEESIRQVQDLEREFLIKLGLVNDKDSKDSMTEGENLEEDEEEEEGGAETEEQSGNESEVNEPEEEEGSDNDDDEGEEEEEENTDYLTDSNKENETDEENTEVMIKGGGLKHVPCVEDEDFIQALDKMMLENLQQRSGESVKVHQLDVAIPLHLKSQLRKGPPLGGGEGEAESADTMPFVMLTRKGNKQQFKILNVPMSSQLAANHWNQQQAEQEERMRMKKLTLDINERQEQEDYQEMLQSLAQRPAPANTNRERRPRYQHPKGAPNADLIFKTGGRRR
UniProt Q92769: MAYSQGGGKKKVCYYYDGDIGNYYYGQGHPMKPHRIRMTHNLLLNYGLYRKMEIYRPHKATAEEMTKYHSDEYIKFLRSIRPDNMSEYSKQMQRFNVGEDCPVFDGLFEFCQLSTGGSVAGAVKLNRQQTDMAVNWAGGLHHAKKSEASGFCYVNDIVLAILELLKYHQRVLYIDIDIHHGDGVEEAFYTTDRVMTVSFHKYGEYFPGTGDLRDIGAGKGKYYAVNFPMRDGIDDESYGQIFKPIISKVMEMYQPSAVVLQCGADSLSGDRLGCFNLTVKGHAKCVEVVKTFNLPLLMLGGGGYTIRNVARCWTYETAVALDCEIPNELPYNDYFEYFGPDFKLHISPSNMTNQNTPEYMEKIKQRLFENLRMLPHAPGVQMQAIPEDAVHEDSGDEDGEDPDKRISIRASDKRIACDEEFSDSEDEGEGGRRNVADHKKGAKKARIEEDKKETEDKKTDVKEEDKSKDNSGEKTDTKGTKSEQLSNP
UniProt Q96I24: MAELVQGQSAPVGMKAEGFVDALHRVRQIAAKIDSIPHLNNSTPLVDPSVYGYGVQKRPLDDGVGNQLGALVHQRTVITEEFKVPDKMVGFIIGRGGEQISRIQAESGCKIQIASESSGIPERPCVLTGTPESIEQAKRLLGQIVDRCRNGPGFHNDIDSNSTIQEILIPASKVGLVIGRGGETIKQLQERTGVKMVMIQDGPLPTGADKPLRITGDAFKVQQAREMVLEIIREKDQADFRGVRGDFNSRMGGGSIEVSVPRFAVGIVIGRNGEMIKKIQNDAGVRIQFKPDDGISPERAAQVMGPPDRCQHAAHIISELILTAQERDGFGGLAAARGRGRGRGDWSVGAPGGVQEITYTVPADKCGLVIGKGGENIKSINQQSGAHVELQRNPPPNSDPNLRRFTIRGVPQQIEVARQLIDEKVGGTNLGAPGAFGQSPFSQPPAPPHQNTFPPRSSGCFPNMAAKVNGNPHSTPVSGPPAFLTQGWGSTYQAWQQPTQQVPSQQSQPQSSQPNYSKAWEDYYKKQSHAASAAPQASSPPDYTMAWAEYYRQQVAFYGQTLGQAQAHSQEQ
UniProt Q92922: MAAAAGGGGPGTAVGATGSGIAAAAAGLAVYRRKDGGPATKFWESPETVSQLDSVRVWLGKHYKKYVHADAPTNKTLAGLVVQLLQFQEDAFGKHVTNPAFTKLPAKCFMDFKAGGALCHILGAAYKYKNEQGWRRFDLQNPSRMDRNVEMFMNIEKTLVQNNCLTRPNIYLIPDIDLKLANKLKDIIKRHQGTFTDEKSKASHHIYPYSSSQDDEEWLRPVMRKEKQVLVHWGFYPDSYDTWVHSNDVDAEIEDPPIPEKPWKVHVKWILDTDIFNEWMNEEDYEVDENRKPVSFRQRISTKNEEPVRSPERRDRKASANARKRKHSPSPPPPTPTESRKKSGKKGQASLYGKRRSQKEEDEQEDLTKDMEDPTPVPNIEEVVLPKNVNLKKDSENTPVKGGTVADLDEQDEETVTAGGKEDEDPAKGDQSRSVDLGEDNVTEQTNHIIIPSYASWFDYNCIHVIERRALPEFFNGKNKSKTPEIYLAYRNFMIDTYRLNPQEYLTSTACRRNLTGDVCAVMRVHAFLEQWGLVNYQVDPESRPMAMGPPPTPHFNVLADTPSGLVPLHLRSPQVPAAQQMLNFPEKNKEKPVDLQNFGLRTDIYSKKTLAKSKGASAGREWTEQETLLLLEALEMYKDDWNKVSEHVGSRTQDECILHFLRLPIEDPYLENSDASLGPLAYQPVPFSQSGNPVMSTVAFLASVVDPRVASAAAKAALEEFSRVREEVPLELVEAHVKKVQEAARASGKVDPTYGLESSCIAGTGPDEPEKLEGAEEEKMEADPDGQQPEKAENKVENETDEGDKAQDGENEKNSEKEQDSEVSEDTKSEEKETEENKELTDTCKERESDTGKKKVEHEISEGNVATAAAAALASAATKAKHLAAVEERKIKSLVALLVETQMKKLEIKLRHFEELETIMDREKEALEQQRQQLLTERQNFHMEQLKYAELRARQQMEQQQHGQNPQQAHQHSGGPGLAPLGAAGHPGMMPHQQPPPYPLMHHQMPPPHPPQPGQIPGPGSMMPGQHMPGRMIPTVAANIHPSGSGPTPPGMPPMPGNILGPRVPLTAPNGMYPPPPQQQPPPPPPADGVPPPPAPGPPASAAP
UniProt Q8TAQ2: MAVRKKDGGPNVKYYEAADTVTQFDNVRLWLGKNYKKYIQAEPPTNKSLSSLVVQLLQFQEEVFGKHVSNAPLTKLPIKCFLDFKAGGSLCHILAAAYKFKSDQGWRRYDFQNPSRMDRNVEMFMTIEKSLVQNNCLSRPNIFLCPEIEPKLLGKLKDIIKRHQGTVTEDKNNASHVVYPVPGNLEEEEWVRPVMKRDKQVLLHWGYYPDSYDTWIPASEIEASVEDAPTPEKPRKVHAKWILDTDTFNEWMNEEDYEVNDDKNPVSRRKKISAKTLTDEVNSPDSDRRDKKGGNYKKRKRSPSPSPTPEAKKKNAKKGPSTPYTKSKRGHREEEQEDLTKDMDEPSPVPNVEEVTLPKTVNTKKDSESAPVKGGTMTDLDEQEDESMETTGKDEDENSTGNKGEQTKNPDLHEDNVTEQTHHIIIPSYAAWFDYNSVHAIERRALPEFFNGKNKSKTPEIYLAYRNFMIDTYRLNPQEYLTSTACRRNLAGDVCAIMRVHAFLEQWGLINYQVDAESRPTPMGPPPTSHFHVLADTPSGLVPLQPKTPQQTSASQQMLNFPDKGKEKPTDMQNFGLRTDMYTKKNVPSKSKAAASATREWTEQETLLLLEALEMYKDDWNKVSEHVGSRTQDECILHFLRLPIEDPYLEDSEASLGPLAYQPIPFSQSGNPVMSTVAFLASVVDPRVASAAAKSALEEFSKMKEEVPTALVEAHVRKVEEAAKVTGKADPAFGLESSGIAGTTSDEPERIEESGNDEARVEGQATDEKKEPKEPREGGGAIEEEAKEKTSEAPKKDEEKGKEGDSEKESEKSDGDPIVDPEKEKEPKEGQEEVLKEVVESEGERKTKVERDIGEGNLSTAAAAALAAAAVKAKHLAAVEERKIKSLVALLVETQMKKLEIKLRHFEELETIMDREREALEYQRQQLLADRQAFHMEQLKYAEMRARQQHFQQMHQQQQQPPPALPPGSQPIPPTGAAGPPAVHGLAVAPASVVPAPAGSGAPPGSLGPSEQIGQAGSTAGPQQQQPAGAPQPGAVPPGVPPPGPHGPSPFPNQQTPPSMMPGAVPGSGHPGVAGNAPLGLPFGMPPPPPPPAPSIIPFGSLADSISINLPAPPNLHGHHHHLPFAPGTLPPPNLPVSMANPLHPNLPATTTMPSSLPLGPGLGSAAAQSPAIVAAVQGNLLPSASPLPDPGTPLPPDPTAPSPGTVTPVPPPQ
UniProt Q15365: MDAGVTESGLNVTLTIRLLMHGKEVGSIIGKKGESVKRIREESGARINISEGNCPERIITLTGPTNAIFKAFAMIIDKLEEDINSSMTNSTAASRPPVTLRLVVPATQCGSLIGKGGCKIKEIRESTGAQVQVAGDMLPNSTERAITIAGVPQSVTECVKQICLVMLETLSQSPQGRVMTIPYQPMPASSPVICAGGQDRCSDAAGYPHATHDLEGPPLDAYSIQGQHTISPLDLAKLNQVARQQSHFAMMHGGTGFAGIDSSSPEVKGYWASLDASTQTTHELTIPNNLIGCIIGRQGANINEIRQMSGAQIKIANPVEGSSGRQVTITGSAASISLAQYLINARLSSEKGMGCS

T1: FOSL1 (human (endogenous in Th17 cells)) (UniProt P15407)
T1 sequence: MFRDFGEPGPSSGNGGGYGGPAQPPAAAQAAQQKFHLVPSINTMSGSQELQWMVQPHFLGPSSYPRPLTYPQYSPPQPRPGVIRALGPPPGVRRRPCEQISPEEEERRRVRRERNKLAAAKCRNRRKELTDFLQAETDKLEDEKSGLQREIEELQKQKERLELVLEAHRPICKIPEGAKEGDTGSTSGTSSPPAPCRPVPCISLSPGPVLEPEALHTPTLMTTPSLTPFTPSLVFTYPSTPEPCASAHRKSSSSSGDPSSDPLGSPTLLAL


Molecular target: T1, FOSL1 (human (endogenous in Th17 cells))
Assay: affinity purification with mass spectrometry

| Molecule | binding |
| --- | --- |
| CLTC (from UniProt Q00610 1-1675) | binds |
| COL1A2 (from UniProt P08123 80-1119) | binds |
| DDX17 (from UniProt Q92841 1-729) | binds |
| SMARCA2 (from UniProt P51531 1-1590) | binds |
| SMARCB1 (from UniProt Q12824 1-385) | binds |
| SMARCD2 (from UniProt Q92925 1-531) | binds |
| SMARCE1 (from UniProt Q969G3 1-411) | binds |
| TRIM21 (from UniProt P19474 1-475) | binds |
| UPF2 (from UniProt Q9HAU5 1-1272) | binds |
| XRN1 (from UniProt Q8IZH2 1-1706) | binds |
| histone deacetylase 2 (HDAC2) (from UniProt Q92769 1-488) | binds |
| DDX1 (protein, UniProt Q92499 1-740) MAAFSEMGVMPEIAQAVEEMDWLLPTDIQAESIPLILGGGDVLMAAETGSGKTGAFSIPVIQIVYETLKDQQEGKKGKTTIKTGASVLNKWQMNPYDRGSAFAIGSDGLCCQSREVKEWHGCRATKGLMKGKHYYEVSCHDQGLCRVGWSTMQASLDLGTDKFGFGFGGTGKKSHNKQFDNYGEEFTMHDTIGCYLDIDKGHVKFSKNGKDLGLAFEIPPHMKNQALFPACVLKNAELKFNFGEEEFKFPPKDGFVALSKAPDGYIVKSQHSGNAQVTQTKFLPNAPKALIVEPSRELAEQTLNNIKQFKKYIDNPKLRELLIIGGVAARDQLSVLENGVDIVVGTPGRLDDLVSTGKLNLSQVRFLVLDEADGLLSQGYSDFINRMHNQIPQVTSDGKRLQVIVCSATLHSFDVKKLSEKIMHFPTWVDLKGEDSVPDTVHHVVVPVNPKTDRLWERLGKSHIRTDDVHAKDNTRPGANSPEMWSEAIKILKGEYAVRAIKEHKMDQAIIFCRTKIDCDNLEQYFIQQGGGPDKKGHQFSCVCLHGDRKPHERKQNLERFKKGDVRFLICTDVAARGIDIHGVPYVINVTLPDEKQNYVHRIGRVGRAERMGLAISLVATEKEKVWYHVCSSRGKGCYNTRLKEDGGCTIWYNEMQLLSEIEEHLNCTISQVEPDIKVPVDEFDGKVTYGQKRAAGGGSYKGHVDILAPTVQELAALEKEAQTSFLHLGYLPNQLFRTF | binds |
| ILF3 (protein, UniProt Q12906 1-894) MRPMRIFVNDDRHVMAKHSSVYPTQEELEAVQNMVSHTERALKAVSDWIDEQEKGSSEQAESDNMDVPPEDDSKEGAGEQKTEHMTRTLRGVMRVGLVAKGLLLKGDLDLELVLLCKEKPTTALLDKVADNLAIQLAAVTEDKYEILQSVDDAAIVIKNTKEPPLSLTIHLTSPVVREEMEKVLAGETLSVNDPPDVLDRQKCLAALASLRHAKWFQARANGLKSCVIVIRVLRDLCTRVPTWGPLRGWPLELLCEKSIGTANRPMGAGEALRRVLECLASGIVMPDGSGIYDPCEKEATDAIGHLDRQQREDITQSAQHALRLAAFGQLHKVLGMDPLPSKMPKKPKNENPVDYTVQIPPSTTYAITPMKRPMEEDGEEKSPSKKKKKIQKKEEKAEPPQAMNALMRLNQLKPGLQYKLVSQTGPVHAPIFTMSVEVDGNSFEASGPSKKTAKLHVAVKVLQDMGLPTGAEGRDSSKGEDSAEETEAKPAVVAPAPVVEAVSTPSAAFPSDATAEQGPILTKHGKNPVMELNEKRRGLKYELISETGGSHDKRFVMEVEVDGQKFQGAGSNKKVAKAYAALAALEKLFPDTPLALDANKKKRAPVPVRGGPKFAAKPHNPGFGMGGPMHNEVPPPPNLRGRGRGGSIRGRGRGRGFGGANHGGYMNAGAGYGSYGYGGNSATAGYSQFYSNGGHSGNASGGGGGGGGGSSGYGSYYQGDNYNSPVPPKHAGKKQPHGGQQKPSYGSGYQSHQGQQQSYNQSPYSNYGPPQGKQKGYNHGQGSYSYSNSYNSPGGGGGSDYNYESKFNYSGSGGRSGGNSYGSGGASYNPGSHGGYGGGSGGGSSYQGKQGGYSQSNYNSPGSGQNYSGPPSSYQSSQGGYGRNADHSMNYQYR | binds |

Other lines, results leading:

| binding | Molecule |
| --- | --- |
| binds | FUBP3 (from UniProt Q96I24 1-572) |
| binds | SMARCC1 (from UniProt Q92922 1-1105) |
| binds | SMARCC2 (from UniProt Q8TAQ2 1-1214) |
| binds | poly-C binding protein 1 (PCBP1) (from UniProt Q15365 1-356) |
| binds | XRN2 (protein, UniProt Q9H0D6 1-950) MGVPAFFRWLSRKYPSIIVNCVEEKPKECNGVKIPVDASKPNPNDVEFDNLYLDMNGIIHPCTHPEDKPAPKNEDEMMVAIFEYIDRLFSIVRPRRLLYMAIDGVAPRAKMNQQRSRRFRASKEGMEAAVEKQRVREEILAKGGFLPPEEIKERFDSNCITPGTEFMDNLAKCLRYYIADRLNNDPGWKNLTVILSDASAPGEGEHKIMDYIRRQRAQPNHDPNTHHCLCGADADLIMLGLATHEPNFTIIREEFKPNKPKPCGLCNQFGHEVKDCEGLPREKKGKHDELADSLPCAEGEFIFLRLNVLREYLERELTMASLPFTFDVERSIDDWVFMCFFVGNDFLPHLPSLEIRENAIDRLVNIYKNVVHKTGGYLTESGYVNLQRVQMIMLAVGEVEDSIFKKRKDDEDSFRRRQKEKRKRMKRDQPAFTPSGILTPHALGSRNSPGSQVASNPRQAAYEMRMQNNSSPSISPNTSFTSDGSPSPLGGIKRKAEDSDSEPEPEDNVRLWEAGWKQRYYKNKFDVDAADEKFRRKVVQSYVEGLCWVLRYYYQGCASWKWYYPFHYAPFASDFEGIADMPSDFEKGTKPFKPLEQLMGVFPAASGNFLPPSWRKLMSDPDSSIIDFYPEDFAIDLNGKKYAWQGVALLPFVDERRLRAALEEVYPDLTPEETRRNSLGGDVLFVGKHHPLHDFILELYQTGSTEPVEVPPELCHGIQGKFSLDEEAILPDQIVCSPVPMLRDLTQNTVVSINFKDPQFAEDYIFKAVMLPGARKPAAVLKPSDWEKSSNGRQWKPQLGFNRDRRPVHLDQAAFRTLGHVMPRGSGTGIYSNAAPPPVTYQGNLYRPLLRGQAQIPKLMSNMRPQDSWRGPPPLFQQQRFDRGVGAEPLLPWNRMLQTQNAAFQPNQYQMLAGPGGYPPRRDDRGGRQGYPREGRKYPLPPPSGRYNWN |
| binds | UPF1 (protein, UniProt Q92900 1-1129) MSVEAYGPSSQTLTFLDTEEAELLGADTQGSEFEFTDFTLPSQTQTPPGGPGGPGGGGAGGPGGAGAGAAAGQLDAQVGPEGILQNGAVDDSVAKTSQLLAELNFEEDEEDTYYTKDLPIHACSYCGIHDPACVVYCNTSKKWFCNGRGNTSGSHIVNHLVRAKCKEVTLHKDGPLGETVLECYNCGCRNVFLLGFIPAKADSVVVLLCRQPCASQSSLKDINWDSSQWQPLIQDRCFLSWLVKIPSEQEQLRARQITAQQINKLEELWKENPSATLEDLEKPGVDEEPQHVLLRYEDAYQYQNIFGPLVKLEADYDKKLKESQTQDNITVRWDLGLNKKRIAYFTLPKTDSGNEDLVIIWLRDMRLMQGDEICLRYKGDLAPLWKGIGHVIKVPDNYGDEIAIELRSSVGAPVEVTHNFQVDFVWKSTSFDRMQSALKTFAVDETSVSGYIYHKLLGHEVEDVIIKCQLPKRFTAQGLPDLNHSQVYAVKTVLQRPLSLIQGPPGTGKTVTSATIVYHLARQGNGPVLVCAPSNIAVDQLTEKIHQTGLKVVRLCAKSREAIDSPVSFLALHNQIRNMDSMPELQKLQQLKDETGELSSADEKRYRALKRTAERELLMNADVICCTCVGAGDPRLAKMQFRSILIDESTQATEPECMVPVVLGAKQLILVGDHCQLGPVVMCKKAAKAGLSQSLFERLVVLGIRPIRLQVQYRMHPALSAFPSNIFYEGSLQNGVTAADRVKKGFDFQWPQPDKPMFFYVTQGQEEIASSGTSYLNRTEAANVEKITTKLLKAGAKPDQIGIITPYEGQRSYLVQYMQFSGSLHTKLYQEVEIASVDAFQGREKDFIILSCVRANEHQGIGFLNDPRRLNVALTRARYGVIIVGNPKALSKQPLWNHLLNYYKEQKVLVEGPLNNLRESLMQFSKPRKLVNTINPGARFMTTAMYDAREAIIPGSVYDRSSQGRPSSMYFQTHDQIGMISAGPSHVAAMNIPIPFNLVMPPMPPPGYFGQANGPAAGRGTPKGKTGRGGRQKNRFGLPGPSQTNLPNSQASQDVASQPFSQGALTQGYISMSQPSQMSQPGLSQPELSQDSYLGDEFKSQIDVALSQDSTYQGERAYQHGGVTGLSQY |
| binds | RBM14 (protein, UniProt Q96PK6 1-669) MKIFVGNVDGADTTPEELAALFAPYGTVMSCAVMKQFAFVHMRENAGALRAIEALHGHELRPGRALVVEMSRPRPLNTWKIFVGNVSAACTSQELRSLFERRGRVIECDVVKDYAFVHMEKEADAKAAIAQLNGKEVKGKRINVELSTKGQKKGPGLAVQSGDKTKKPGAGDTAFPGTGGFSATFDYQQAFGNSTGGFDGQARQPTPPFFGRDRSPLRRSPPRASYVAPLTAQPATYRAQPSVSLGAAYRAQPSASLGVGYRTQPMTAQAASYRAQPSVSLGAPYRGQLASPSSQSAAASSLGPYGGAQPSASALSSYGGQAAAASSLNSYGAQGSSLASYGNQPSSYGAQAASSYGVRAAASSYNTQGAASSLGSYGAQAASYGAQSAASSLAYGAQAASYNAQPSASYNAQSAPYAAQQAASYSSQPAAYVAQPATAAAYASQPAAYAAQATTPMAGSYGAQPVVQTQLNSYGAQASMGLSGSYGAQSAAAATGSYGAAAAYGAQPSATLAAPYRTQSSASLAASYAAQQHPQAAASYRGQPGNAYDGAGQPSAAYLSMSQGAVANANSTPPPYERTRLSPPRASYDDPYKKAVAMSKRYGSDRRLAELSDYRRLSESQLSFRRSPTKSSLDYRRLPDAHSDYARYSGSYNDYLRAAQMHSGYQRRM |
| binds | HNRNPR (protein, UniProt O43390 1-633) MANQVNGNAVQLKEEEEPMDTSSVTHTEHYKTLIEAGLPQKVAERLDEIFQTGLVAYVDLDERAIDALREFNEEGALSVLQQFKESDLSHVQNKSAFLCGVMKTYRQREKQGSKVQESTKGPDEAKIKALLERTGYTLDVTTGQRKYGGPPPDSVYSGVQPGIGTEVFVGKIPRDLYEDELVPLFEKAGPIWDLRLMMDPLSGQNRGYAFITFCGKEAAQEAVKLCDSYEIRPGKHLGVCISVANNRLFVGSIPKNKTKENILEEFSKVTEGLVDVILYHQPDDKKKNRGFCFLEYEDHKSAAQARRRLMSGKVKVWGNVVTVEWADPVEEPDPEVMAKVKVLFVRNLATTVTEEILEKSFSEFGKLERVKKLKDYAFVHFEDRGAAVKAMDEMNGKEIEGEEIEIVLAKPPDKKRKERQAARQASRSTAYEDYYYHPPPRMPPPIRGRGRGGGRGGYGYPPDYYGYEDYYDDYYGYDYHDYRGGYEDPYYGYDDGYAVRGRGGGRGGRGAPPPPRGRGAPPPRGRAGYSQRGAPLGPPRGSRGGRGGPAQQQRGRGSRGSRGNRGGNVGGKRKADGYNQPDSKRRQTNNQQNWGSQPIAQQPLQQGGDYSGNYGYNNDNQEFYQDTYGQQWK |
